Measured values as given in publication PMC6877644.
Results are given in words; binding and its absence hold for the method and conditions named. In cells and extracts the contact can be indirect. Some binding calls cover weakened binding; strength is not graded here. Where a sequence is shown, tags or fusion partners need not be part of it.

Biological target: T1, FLAG-MSL1 (D. melanogaster) (UniProt P50535)
T1 sequence: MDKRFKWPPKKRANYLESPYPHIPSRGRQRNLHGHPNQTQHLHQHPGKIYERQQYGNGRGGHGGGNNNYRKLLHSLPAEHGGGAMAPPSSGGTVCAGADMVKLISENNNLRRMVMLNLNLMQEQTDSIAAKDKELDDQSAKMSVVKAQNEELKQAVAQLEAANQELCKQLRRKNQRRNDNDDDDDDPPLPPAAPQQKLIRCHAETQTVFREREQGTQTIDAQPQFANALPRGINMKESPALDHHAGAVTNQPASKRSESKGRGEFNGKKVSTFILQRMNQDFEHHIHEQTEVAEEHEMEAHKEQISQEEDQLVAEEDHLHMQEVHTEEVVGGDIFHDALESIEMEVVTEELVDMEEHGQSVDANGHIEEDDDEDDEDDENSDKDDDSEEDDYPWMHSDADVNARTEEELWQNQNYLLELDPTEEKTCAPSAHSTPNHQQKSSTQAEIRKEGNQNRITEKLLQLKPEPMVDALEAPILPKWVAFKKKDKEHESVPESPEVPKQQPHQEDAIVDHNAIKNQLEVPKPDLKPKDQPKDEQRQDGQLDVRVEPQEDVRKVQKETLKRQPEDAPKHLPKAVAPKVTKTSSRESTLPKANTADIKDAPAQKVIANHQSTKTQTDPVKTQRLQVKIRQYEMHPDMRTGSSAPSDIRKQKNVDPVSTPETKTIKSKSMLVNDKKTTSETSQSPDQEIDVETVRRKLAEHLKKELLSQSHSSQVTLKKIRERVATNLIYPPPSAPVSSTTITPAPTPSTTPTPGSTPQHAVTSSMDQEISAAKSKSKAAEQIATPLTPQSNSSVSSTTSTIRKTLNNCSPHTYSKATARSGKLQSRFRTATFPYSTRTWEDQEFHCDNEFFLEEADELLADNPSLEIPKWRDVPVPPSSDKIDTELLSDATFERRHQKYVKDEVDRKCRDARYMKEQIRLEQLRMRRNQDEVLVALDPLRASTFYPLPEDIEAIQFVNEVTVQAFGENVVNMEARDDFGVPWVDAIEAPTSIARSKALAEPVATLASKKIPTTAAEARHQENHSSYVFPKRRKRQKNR
Assay: co-IP; Sf21 extracts with JJ-complex (FLAG-JIL-1/untagged JASPer) and with FLAG-MSL1/untagged MSL2 and FLAG-MSL3 mixed to similar concentrations; IP with antibodies specific for the bait (MSL1 or JIL-1)

B1: untagged MSL2 (protein, UniProt P50534 1-773)
chain: MAQTAYLKVTRIAMRSASNLSKRRVEELNSGLGELRQLLSCVVCCQLLVDPYSPKGKRCQHNVCRLCLRGKKHLFPSCTQCEGCSDFKTYEENRMMAAQLLCYKTLCVHLLHSALFGELAGMRPQVARELVPRIKLPPKTTQEFIREGSNISDTFDIFLPQPDLPFLKDMPTSLPAETPPTSAVTTPELPYDHHLNISDIEAEAAATAEQGHFSPLPLLPTGSRMGMLSHAGQIVIATESSESGFMDQAWTDQVDLSGTVSVSKYTNSGNNFAVSYVMPTSATTKFDPQELQIGQVVQMADSTQLAVLAAVEETVETSTQLTVLSTTVEETVETSTQLEVLTSAEEPNEISDQLANLQVEESDEALVEETVEEAEGTSIPSEVVAEHMEEDQHLDVHTSQSPTQTEMEEAVEEHVATKTQLGHVQTELQDAESLQKDFEDAKAAAEEAKEKEKDLHAISAELQKEDSDEPTLKRKRTRTLKASQAAKIEPVPSEVKTKVQSGKGALRRIRGKDKEEKVKPPKPKCRCGISGSSNTLTTCRNSRCPCYKSYNSCAGCHCVCCKNPHKEDYVESDEDDDLEDFEMPKDVPEPMTQSEEPVVAEPRQEENSMAPPDSSAPISLVPLNNLQQSQHPLVLVQNEKGEYQGFNIFQGSKPLDPVTVGFTIRVQLQHTDGFGSLPQYAYIMPTIDPPNPPAPSLSPPPPPAPDREVIEPPAKKFRTSRTRRGRANFSALDTVDELVSGGSRSNSAAGDRSSATDNAHSLFEEIMSGSDDL
  binding: binds
